Article PMC3928049

How the values were obtained:
Test in all cases: pull-down; 6 ug resin-bound MBP fusion protein added to 250 ug total protein extract of DEX-induced transgenic Arabidopsis seedlings, 1 h at 4 C with rotation; 50 mM Tris-HCl pH 7.4, 150 mM NaCl, 10% glycerol, 0.2% NP-40, MG132 and protease inhibitors; anti-HA immunoblot; only the target purified
MBP-JAZ11 (Arabidopsis) = target: T1, MBP-JAZ11 (Arabidopsis) (UniProt Q9M246)
T1 sequence: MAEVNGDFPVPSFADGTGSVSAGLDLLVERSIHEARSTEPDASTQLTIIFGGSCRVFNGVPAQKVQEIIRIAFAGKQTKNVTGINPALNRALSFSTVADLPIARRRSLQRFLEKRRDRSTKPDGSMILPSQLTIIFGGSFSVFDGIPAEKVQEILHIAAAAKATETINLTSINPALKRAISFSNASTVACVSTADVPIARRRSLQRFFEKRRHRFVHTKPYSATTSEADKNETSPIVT

MBP-JAZ7 (Arabidopsis) = target: T2, MBP-JAZ7 (Arabidopsis) (UniProt O64687)
T2 sequence: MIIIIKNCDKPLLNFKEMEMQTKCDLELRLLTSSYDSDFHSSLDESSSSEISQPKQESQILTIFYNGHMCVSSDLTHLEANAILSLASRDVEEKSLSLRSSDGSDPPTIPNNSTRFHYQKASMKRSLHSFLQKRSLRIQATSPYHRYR

MBP-JAZ3 (Arabidopsis) = target: T3, MBP-JAZ3 (Arabidopsis) (UniProt Q9LVI4)
T3 sequence: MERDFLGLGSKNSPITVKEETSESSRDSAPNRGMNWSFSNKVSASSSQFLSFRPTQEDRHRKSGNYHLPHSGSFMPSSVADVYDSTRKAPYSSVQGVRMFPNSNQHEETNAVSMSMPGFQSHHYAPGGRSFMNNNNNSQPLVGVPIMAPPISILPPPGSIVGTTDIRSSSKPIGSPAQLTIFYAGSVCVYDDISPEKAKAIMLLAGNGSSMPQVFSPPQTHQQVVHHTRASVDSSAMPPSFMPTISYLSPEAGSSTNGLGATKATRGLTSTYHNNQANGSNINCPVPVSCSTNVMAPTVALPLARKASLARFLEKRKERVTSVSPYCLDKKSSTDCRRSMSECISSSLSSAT

MBP-JAZ9 (Arabidopsis) = target: T4, MBP-JAZ9 (Arabidopsis) (UniProt Q8W4J8)
T4 sequence: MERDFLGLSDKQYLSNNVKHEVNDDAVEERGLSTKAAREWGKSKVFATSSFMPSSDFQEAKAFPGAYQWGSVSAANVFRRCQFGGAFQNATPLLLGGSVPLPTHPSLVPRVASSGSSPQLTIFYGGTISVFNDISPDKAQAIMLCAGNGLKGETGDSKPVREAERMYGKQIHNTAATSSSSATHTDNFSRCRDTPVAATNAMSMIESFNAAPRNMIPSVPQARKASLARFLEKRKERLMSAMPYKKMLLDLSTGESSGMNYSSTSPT

MBP-JAZ4 (Arabidopsis) = target: T5, MBP-JAZ4 (Arabidopsis) (UniProt Q58G47)
T5 sequence: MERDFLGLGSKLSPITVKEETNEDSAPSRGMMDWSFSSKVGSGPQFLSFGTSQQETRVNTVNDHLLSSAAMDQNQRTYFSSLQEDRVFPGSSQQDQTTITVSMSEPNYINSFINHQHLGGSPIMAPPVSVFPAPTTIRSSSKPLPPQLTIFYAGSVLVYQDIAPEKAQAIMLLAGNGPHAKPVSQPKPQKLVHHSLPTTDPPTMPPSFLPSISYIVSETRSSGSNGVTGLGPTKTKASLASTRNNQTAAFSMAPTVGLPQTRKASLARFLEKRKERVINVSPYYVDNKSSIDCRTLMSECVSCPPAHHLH

MBP-JAZ10 (Arabidopsis) = target: T6, MBP-JAZ10 (Arabidopsis) (UniProt Q93ZM9)
T6 sequence: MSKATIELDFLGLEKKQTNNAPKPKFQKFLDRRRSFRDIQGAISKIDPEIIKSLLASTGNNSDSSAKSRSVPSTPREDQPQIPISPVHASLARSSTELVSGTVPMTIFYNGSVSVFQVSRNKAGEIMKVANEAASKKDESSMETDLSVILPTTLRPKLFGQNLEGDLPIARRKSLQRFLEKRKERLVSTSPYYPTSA

MBP-JAZ8 (Arabidopsis) = target: T7, MBP-JAZ8 (Arabidopsis) (UniProt Q8LBM2)
T7 sequence: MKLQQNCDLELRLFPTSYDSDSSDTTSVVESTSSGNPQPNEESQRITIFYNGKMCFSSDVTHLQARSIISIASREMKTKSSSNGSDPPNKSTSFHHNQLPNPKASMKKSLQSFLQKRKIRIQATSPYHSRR

Measured: binding

HopX1^C179A-HA (Pseudomonas syringae pv. tabaci 11528)
no binding: all assays above

No constants are given. Whether binding was seen depends on the method and setting. Binding seen in cells or lysates may run through a third protein. Where a sequence is shown, tags or fusion partners need not be part of it.
